The record followed here is publication PMC6347689, “Native mass spectrometry reveals the conformational diversity of the UVR8 photoreceptor” (Proceedings of the National Academy of Sciences of the …, 2019).

Assay [1] addresses full-length UVR8 (UV … LOCUS8) (Arabidopsis thaliana) (UniProt Q9FN03). Kind of assay: native MS; native ion mobility MS with nESI, sample solution illuminated in the ion source tip with a 280-nm LED (25 mW, 350 mA): 10 s for UVR8 12-381, 1 s for full-length UVR8; both purified.
The target of assay [2] is T1, full-length UVR8 (UV … LOCUS8) (Arabidopsis thaliana), Q9FN03.
T1 chain: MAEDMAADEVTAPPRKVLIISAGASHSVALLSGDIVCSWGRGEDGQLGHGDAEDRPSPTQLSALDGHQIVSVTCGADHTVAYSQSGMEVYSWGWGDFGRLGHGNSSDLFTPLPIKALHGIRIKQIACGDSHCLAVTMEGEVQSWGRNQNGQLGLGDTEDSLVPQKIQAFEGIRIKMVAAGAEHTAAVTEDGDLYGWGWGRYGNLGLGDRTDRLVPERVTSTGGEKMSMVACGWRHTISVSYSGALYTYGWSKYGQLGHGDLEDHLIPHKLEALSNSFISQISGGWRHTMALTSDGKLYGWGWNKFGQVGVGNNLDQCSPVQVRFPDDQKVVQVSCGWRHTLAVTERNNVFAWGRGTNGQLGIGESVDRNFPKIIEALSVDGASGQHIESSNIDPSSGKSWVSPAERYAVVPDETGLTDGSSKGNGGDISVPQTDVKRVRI
The assay can be described thus: native MS; gas phase illumination of trapped ions with a 266-nm Nd:YAG laser (10 Hz, 0.4–1 mJ per pulse, 10–20 shots); both purified. The following applies: remark: other sources report otherwise.

The target in assay [3] is T1, full-length UVR8 (UV … LOCUS8) …. Kind of assay: native MS; collisional activation before ion mobility (aIMS) and CID of mass-selected dimer ions in the gas phase, in the absence of UV-B light; trap collision voltage 4 to 150 V; both purified. The settings on record: remark: other sources report otherwise.
Assay [4] has as its target UVR8 core domain (residues 12–381, UVR8^12–381) (Arabidopsis thaliana) (UniProt Q9FN03). Kind of assay: native MS; native ion mobility MS with nESI, sample solution illuminated in the ion source tip with a 280-nm LED (25 mW, 350 mA): 10 s for UVR8 12-381, 1 s for full-length UVR8; both purified.

No constants are given. Whether binding was seen depends on the method and setting. Some entries that bind do so weakly or less than the wild type.

B1: full-length UVR8 (UV … LOCUS8) (protein, UniProt Q9FN03 1-440)
chain: T1 chain
B1: in assay [1], the binding entry is reported as “binds weakly”.

B2: full-length UVR8 (UV … LOCUS8), Q9FN03 1-440 (natural protein)
chain: T1 chain
Take B2: the binding result in assay [2] and in assay [3] was “binds” each time.

B3: UVR8 core domain (residues 12–381, UVR8^12–381) (domain or fragment, Arabidopsis thaliana, UniProt Q9FN03 12-381, looked up)
chain: APPRKVLIISAGASHSVALLSGDIVCSWGRGEDGQLGHGDAEDRPSPTQLSALDGHQIVSVTCGADHTVAYSQSGMEVYSWGWGDFGRLGHGNSSDLFTPLPIKALHGIRIKQIACGDSHCLAVTMEGEVQSWGRNQNGQLGLGDTEDSLVPQKIQAFEGIRIKMVAAGAEHTAAVTEDGDLYGWGWGRYGNLGLGDRTDRLVPERVTSTGGEKMSMVACGWRHTISVSYSGALYTYGWSKYGQLGHGDLEDHLIPHKLEALSNSFISQISGGWRHTMALTSDGKLYGWGWNKFGQVGVGNNLDQCSPVQVRFPDDQKVVQVSCGWRHTLAVTERNNVFAWGRGTNGQLGIGESVDRNFPKIIEALSVDG
notes: Homodimer in the dark, monomer after UV-B; also called truncated UVR8; source: E. coli Rosetta 2 (DE3) pLysS, purified (Ni-NTA, Strep-Tactin XT, cleaved from the resin with SUMO protease); not shown: 7xHis, N-terminal, cleaved; Strep II, N-terminal, cleaved; SUMO, N-terminal, cleaved
Regarding B3, in assay [4], the binding entry is “binds weakly”.
